From paper PMC11126483
Results are given in words; binding and its absence hold for the method and conditions named. In cells and extracts the contact can be indirect. Some results given as binding are weak or reduced against the parent protein; the word gives no strength. Sequences can lack the tags named with a protein.

Protein sequences, listed by entry. Tags and fused reporters are not part of them.
UniProt Q96P20: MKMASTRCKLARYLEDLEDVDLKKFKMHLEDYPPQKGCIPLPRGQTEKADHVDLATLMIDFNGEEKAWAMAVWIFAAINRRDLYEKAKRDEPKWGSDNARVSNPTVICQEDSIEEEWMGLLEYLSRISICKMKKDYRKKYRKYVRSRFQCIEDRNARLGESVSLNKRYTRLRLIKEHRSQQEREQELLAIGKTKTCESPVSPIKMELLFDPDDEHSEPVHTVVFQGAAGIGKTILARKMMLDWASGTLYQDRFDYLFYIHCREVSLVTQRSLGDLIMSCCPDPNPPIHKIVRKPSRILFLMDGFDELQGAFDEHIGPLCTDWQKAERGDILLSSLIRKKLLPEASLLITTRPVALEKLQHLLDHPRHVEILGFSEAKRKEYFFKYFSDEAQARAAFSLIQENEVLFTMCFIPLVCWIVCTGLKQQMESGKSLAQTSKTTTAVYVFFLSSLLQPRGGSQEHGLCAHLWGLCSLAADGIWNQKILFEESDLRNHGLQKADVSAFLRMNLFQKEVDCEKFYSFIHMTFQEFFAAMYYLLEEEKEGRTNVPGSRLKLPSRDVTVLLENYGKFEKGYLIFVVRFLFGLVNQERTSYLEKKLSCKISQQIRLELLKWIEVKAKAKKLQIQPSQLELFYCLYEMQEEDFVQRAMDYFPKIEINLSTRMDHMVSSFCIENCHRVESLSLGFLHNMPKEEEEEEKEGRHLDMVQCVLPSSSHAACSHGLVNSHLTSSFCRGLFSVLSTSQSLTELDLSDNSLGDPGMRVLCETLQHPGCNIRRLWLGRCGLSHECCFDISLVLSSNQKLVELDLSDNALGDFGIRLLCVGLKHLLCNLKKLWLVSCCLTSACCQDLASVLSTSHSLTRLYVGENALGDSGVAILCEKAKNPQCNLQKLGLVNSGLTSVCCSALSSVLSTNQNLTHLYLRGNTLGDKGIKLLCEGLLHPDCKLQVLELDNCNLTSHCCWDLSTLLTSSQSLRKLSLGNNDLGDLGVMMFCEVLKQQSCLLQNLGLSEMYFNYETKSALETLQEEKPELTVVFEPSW

Target: T1, Flag-FXR (farnesoid X receptor) (human) (UniProt Q96RI1)
T1 sequence: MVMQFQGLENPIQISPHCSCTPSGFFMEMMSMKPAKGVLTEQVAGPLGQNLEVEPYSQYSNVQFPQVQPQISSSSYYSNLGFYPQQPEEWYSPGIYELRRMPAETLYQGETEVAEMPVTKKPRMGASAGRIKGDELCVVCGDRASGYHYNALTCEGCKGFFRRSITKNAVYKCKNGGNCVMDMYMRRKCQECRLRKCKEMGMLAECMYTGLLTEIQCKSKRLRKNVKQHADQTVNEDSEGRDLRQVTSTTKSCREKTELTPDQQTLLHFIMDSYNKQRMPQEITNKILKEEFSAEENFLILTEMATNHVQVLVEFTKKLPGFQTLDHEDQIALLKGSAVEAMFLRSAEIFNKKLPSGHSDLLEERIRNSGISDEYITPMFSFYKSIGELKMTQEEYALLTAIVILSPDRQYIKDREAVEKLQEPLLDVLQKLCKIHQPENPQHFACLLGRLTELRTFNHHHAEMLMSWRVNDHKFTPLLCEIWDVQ
Experiment: co-IP; lysate of LX2 cells overexpressing Flag-FXR; IP with anti-Flag (1:50) or anti-NLRP3 (1:200) antibody, IgG control, protein A/G Plus-Agarose, 4 °C overnight; immunoblotting

binding: binds
Substance: NACHT, LRR, and PYD domain-containing protein 3 (NLRP3) (from UniProt Q96P20 1-1036)
